Reference: PubChem BioAssay AID504764 (Drosophila RNAi Screening Center, 2011)
Screen: 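Knock-downs that raise or lower a Notch target reporter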 (primary screen). Cells: Drosophila Kc167 cells. Reagent: long dsRNA against Drosophila genes. Time to read-out: about 5 days (4 days dsRNA, then 24 h after transfection). Treatment: transfection of constitutively active membrane-tethered Notch lacking the extracellular domain, read 24 h later. Measured: 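Firefly luciferase from an E(spl)m3 reporter with active Notch, plus control-promoter and uninduced reporter wells for normalisation; unnormalised counts, duplicate wells a and b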. Scale: induced reporter light, run 1, well a and induced reporter light, run 1, well b: higher = more light from the Notch target reporter with active Notch; control promoter light, run 1, well a and control promoter light, run 1, well b: higher = more light from the viral control promoter (cell number, transfection, viability); uninduced reporter light, run 1, well a: higher = more light from the Notch target reporter without active Notch. Hit rule: 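Hit if the duplicate-averaged log2 ratio of induced to control-promoter light gives a plate-wise z beyond ±2, or induced to uninduced beyond ±1.8; weak-control or discordant-duplicate wells dropped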. Meaning of the calls: active = modifier hit (raised or lowered Notch signal); inactive = not a hit.
The deposit covers about 22,000 reagents; this is a random part of those that have a named target and a result. Over the whole deposit, 403 (1.9%) are marked active. 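Unnormalised raw counts per well; ratio z-scores behind the hit calls and whether each hit raises or lowers signal are not deposited.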 Not given: the amount of reagent.

Depletion of CG14621 (GeneID 33128) [DRSC20635] resulted in: induced reporter light, run 1, well a = 79050; induced reporter light, run 1, well b = 90190; control promoter light, run 1, well a = 93340; control promoter light, run 1, well b = 96705; uninduced reporter light, run 1, well a = 10675; inactive. Depletion of CG14069 (GeneID 34510) [DRSC02372] resulted in: induced reporter light, run 1, well a = 1.25e5; induced reporter light, run 1, well b = 1.70e5; control promoter light, run 1, well a = 79670; control promoter light, run 1, well b = 1.14e5; uninduced reporter light, run 1, well a = 17145; inactive. Against CG30053 (GeneID 246419) [DRSC07260], the values are induced reporter light, run 1, well a = 98025; induced reporter light, run 1, well b = 96515; control promoter light, run 1, well a = 1.31e5; control promoter light, run 1, well b = 1.19e5; uninduced reporter light, run 1, well a = 10305; inactive. For Gp210 (GeneID 35512) [DRSC04861] the deposit lists induced reporter light, run 1, well a = 1.89e5; induced reporter light, run 1, well b = 1.40e5; control promoter light, run 1, well a = 1.54e5; control promoter light, run 1, well b = 1.24e5; uninduced reporter light, run 1, well a = 11020; inactive. With knock-down of Gp210 (GeneID 35512) [DRSC04900] the results were induced reporter light, run 1, well a = 1.59e5; induced reporter light, run 1, well b = 1.58e5; control promoter light, run 1, well a = 1.54e5; control promoter light, run 1, well b = 1.45e5; uninduced reporter light, run 1, well a = 12665; inactive. With knock-down of CG5033 (GeneID 37036) [DRSC07410], the record shows induced reporter light, run 1, well a = 1.00e5; induced reporter light, run 1, well b = 95715; control promoter light, run 1, well a = 1.79e5; control promoter light, run 1, well b = 1.88e5; uninduced reporter light, run 1, well a = 8080; inactive.

Knock-down of CG18636 (GeneID 2768923) [DRSC02685] came out at: induced reporter light, run 1, well a = 1.18e5; induced reporter light, run 1, well b = 1.51e5; control promoter light, run 1, well a = 1.23e5; control promoter light, run 1, well b = 1.31e5; uninduced reporter light, run 1, well a = 12930; inactive. AlaRS-m (GeneID 38595) [DRSC09660] gave induced reporter light, run 1, well a = 1.20e5; induced reporter light, run 1, well b = 1.09e5; control promoter light, run 1, well a = 87970; control promoter light, run 1, well b = 38365; uninduced reporter light, run 1, well a = 9960; inactive. Rpt6R (GeneID 43635) [DRSC15431] scored induced reporter light, run 1, well a = 1.51e5; induced reporter light, run 1, well b = 1.17e5; control promoter light, run 1, well a = 1.89e5; control promoter light, run 1, well b = 1.71e5; uninduced reporter light, run 1, well a = 14125; inactive. Silencing of CG13033 (GeneID 39839) [DRSC09913] came out at: induced reporter light, run 1, well a = 1.73e5; induced reporter light, run 1, well b = 1.87e5; control promoter light, run 1, well a = 1.89e5; control promoter light, run 1, well b = 1.55e5; uninduced reporter light, run 1, well a = 6838; inactive. With knock-down of CG10916 (GeneID 37081) [DRSC06012] the results were induced reporter light, run 1, well a = 1.04e5; induced reporter light, run 1, well b = 95630; control promoter light, run 1, well a = 1.51e5; control promoter light, run 1, well b = 2.13e5; uninduced reporter light, run 1, well a = 8135; inactive. Knock-down of brat (GeneID 35197) [DRSC03497] came out at: induced reporter light, run 1, well a = 2.37e5; induced reporter light, run 1, well b = 2.18e5; control promoter light, run 1, well a = 1.63e5; control promoter light, run 1, well b = 1.79e5; uninduced reporter light, run 1, well a = 16595; inactive.

2 entries from above, set out differently.
Target gene	amplicon	induced reporter light, run 1, well a	induced reporter light, run 1, well b	control promoter light, run 1, well a	control promoter light, run 1, well b	uninduced reporter light, run 1, well a	activity call
Gp210 (GeneID 35512)	DRSC04861	1.89e5	1.40e5	1.54e5	1.24e5	11020	inactive
Gp210 (GeneID 35512)	DRSC04900	1.59e5	1.58e5	1.54e5	1.45e5	12665	inactive
